Results from patent US6552192B1, “Substituted nitrogen heterocyclic derivatives and pharmaceutical use thereof” (Ustau Experimentalni Botaniky AV-CR, priority 1999, dated 2003).
pIC50: −log10 of the molar value.

Key:
[1] = target: IκB-α; assay: IκB-α kinase inhibition, in vitro kinase assay; assay type: biochemical
[2] = system: T-lymphoblastic leukemia cell line CEM; assay: In vitro cytotoxicity, MTT assay, CEM; assay type: cell-based; details: Homo sapiens, 72 h, read-out: CEM IC50
From the text: (§1) One of the parameters used, as the basis for colorimetric assays, is the metabolic activity of viable cells. For example, a microtiter assay, which uses the tetrazolium salt MTT, is now widely used to quantitate cell proliferation and cytotoxicity. For instance, this assay is used in drug screening programs and in chemosensitivity testing. Because only metabolically active cells cleave tetrazolium salts, these assays detect viable cells exclusively. In the case of MTT assay, yellow soluble tetrazolium salt is reduced to coloured water-insoluble formazan salt. After it is solubilized, the formazan formed can easily and rapidly be quantified in a conventional ELISA plate reader at 570 nm (maximum absorbance). The quantity of reduced formazan corresponds to number of vital cells in the culture. […]
(§2) The cell suspensions that were prepared and diluted according to the particular cell type and the expected target cell density (2.500-30.000 cells per well based on cell growth characteristics) were added by pipette (80 μl) into 96/well microtiter plates. […] Usually, test compound was evaluated at six 4-fold dilutions. […] The optical density (OD) was measured at 540 nm with the Labsystem iEMS Reader MF (UK). The tumour cell survival (TCS) was calculated using the following equitation: TCS=(ODdrug exposed well/mean ODcontrol wells)×100%. […]

[3] = system: B16 melanoma; assay: In vitro cytotoxicity, MTT assay, B16; assay type: cell-based; details: Mus musculus, B16, 72 h, read-out: B16 IC50
From the text: as §1, §2

[4] = system: normal human lymphocytes, spontaneous proliferation; assay: Spontaneous proliferation of lymphocytes, 3H-thymidine incorporation; assay type: cell-based; details: Lymphocyte, 72 h, read-out: spontaneous IC50
Procedure: (§3) Human heparinized peripheral blood was obtained from healthy volunteers by cubital vein punction.
(§4) The cells were diluted at target density of 1.100.000 cells/ml were added by pipet (180 μl) into 96/well microtiter plates. Four-fold dilutions of the intended test concentration were added at time zero in 20 μl aliquots to the microtiter plate wells. Usually, test compound was evaluated at six 4-fold dilutions. […] Incubations of cells with test compounds lasted for 72 hours at 37° C., in 5% CO2 atmosphere and 100% humidity. At the end of incubation period, the cells were assayed by using the [^3H]-TdR:
(§5) Cell cultures were incubated with […] (20 μl of stock solution 500 μCi/ml) per well for 6 hours at 37° C. and 5% CO2. The automated cell harvester was used to lyse cells in water and adsorb the DNA onto glass-fiber filters in the format of microtiter plate. The DNA incorporated [^3H]-TdR was retained on the filter while unincorporated material passes through. The filters were dried at room temperature overnight, sealed into a sample bag with 10-12 ml of scintillant. The amount of [^3]H-TdR present in each filter (in CCPM) was determined by scintillation counting in a Betaplate liquid scintillation counter. The effective dose of immunosuppressant (ED) was calculated using the following equotation: ED=(CCPMdrug exposed well/mean CCPMcontrol wells)×100%.

[5] = system: normal human lymphocytes, mitogen activated proliferation; assay: Mitogen (concanavalin A) activated proliferation of lymphocytes, 3H-thymidine incorporation; assay type: cell-based; details: Lymphocyte, 72 h, read-out: mitogen activated IC50
Procedure: as §3, §4, §5

In the case of `CC[C@H](CO)Nc1nc(NCc2ccccc2)c2ncn(C(C)C)c2n1` [ROSCOVITINE, reference compound], the pIC50 [1] was 5.85, the pIC50 [2] was 5.46 and the pIC50 [3] was 5.36. For the same compound, the pIC50 [4] was 3.79 and the pIC50 [5] was 5.19.
